This passage reports binding results from PMC7290719.

Sequences of proteins named here, by UniProt entry; tags and fusion partners are left off.
UniProt Q9NSY1: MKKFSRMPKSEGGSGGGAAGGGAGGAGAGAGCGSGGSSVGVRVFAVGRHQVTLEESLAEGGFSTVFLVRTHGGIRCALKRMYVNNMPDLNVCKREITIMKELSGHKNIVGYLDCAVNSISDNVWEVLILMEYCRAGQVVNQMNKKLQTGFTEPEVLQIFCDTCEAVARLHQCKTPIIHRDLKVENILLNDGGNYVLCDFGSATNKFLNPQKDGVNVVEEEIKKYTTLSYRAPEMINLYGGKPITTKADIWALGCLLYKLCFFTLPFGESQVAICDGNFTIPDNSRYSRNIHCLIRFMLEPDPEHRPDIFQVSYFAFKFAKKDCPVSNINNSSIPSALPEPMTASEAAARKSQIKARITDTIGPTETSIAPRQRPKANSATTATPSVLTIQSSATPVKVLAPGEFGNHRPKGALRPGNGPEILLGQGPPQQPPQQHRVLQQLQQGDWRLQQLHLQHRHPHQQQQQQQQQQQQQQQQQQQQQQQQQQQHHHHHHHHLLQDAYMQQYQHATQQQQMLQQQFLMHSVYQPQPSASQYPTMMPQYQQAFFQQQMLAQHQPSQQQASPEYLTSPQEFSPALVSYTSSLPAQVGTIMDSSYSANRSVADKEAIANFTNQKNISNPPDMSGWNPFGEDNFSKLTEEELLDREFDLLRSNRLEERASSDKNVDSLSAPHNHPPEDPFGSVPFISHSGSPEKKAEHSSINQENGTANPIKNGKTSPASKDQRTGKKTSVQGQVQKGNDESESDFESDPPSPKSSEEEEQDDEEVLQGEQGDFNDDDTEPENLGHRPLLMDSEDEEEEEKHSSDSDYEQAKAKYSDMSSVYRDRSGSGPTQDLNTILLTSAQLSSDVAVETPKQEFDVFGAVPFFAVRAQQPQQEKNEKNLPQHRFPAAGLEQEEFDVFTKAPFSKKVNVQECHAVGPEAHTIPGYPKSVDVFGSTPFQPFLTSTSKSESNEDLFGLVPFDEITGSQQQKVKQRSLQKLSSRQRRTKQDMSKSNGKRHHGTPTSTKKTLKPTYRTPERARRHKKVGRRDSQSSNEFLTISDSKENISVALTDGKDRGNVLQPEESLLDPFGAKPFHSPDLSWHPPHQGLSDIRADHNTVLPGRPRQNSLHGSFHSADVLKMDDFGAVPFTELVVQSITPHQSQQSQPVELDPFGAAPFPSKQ
UniProt P78559: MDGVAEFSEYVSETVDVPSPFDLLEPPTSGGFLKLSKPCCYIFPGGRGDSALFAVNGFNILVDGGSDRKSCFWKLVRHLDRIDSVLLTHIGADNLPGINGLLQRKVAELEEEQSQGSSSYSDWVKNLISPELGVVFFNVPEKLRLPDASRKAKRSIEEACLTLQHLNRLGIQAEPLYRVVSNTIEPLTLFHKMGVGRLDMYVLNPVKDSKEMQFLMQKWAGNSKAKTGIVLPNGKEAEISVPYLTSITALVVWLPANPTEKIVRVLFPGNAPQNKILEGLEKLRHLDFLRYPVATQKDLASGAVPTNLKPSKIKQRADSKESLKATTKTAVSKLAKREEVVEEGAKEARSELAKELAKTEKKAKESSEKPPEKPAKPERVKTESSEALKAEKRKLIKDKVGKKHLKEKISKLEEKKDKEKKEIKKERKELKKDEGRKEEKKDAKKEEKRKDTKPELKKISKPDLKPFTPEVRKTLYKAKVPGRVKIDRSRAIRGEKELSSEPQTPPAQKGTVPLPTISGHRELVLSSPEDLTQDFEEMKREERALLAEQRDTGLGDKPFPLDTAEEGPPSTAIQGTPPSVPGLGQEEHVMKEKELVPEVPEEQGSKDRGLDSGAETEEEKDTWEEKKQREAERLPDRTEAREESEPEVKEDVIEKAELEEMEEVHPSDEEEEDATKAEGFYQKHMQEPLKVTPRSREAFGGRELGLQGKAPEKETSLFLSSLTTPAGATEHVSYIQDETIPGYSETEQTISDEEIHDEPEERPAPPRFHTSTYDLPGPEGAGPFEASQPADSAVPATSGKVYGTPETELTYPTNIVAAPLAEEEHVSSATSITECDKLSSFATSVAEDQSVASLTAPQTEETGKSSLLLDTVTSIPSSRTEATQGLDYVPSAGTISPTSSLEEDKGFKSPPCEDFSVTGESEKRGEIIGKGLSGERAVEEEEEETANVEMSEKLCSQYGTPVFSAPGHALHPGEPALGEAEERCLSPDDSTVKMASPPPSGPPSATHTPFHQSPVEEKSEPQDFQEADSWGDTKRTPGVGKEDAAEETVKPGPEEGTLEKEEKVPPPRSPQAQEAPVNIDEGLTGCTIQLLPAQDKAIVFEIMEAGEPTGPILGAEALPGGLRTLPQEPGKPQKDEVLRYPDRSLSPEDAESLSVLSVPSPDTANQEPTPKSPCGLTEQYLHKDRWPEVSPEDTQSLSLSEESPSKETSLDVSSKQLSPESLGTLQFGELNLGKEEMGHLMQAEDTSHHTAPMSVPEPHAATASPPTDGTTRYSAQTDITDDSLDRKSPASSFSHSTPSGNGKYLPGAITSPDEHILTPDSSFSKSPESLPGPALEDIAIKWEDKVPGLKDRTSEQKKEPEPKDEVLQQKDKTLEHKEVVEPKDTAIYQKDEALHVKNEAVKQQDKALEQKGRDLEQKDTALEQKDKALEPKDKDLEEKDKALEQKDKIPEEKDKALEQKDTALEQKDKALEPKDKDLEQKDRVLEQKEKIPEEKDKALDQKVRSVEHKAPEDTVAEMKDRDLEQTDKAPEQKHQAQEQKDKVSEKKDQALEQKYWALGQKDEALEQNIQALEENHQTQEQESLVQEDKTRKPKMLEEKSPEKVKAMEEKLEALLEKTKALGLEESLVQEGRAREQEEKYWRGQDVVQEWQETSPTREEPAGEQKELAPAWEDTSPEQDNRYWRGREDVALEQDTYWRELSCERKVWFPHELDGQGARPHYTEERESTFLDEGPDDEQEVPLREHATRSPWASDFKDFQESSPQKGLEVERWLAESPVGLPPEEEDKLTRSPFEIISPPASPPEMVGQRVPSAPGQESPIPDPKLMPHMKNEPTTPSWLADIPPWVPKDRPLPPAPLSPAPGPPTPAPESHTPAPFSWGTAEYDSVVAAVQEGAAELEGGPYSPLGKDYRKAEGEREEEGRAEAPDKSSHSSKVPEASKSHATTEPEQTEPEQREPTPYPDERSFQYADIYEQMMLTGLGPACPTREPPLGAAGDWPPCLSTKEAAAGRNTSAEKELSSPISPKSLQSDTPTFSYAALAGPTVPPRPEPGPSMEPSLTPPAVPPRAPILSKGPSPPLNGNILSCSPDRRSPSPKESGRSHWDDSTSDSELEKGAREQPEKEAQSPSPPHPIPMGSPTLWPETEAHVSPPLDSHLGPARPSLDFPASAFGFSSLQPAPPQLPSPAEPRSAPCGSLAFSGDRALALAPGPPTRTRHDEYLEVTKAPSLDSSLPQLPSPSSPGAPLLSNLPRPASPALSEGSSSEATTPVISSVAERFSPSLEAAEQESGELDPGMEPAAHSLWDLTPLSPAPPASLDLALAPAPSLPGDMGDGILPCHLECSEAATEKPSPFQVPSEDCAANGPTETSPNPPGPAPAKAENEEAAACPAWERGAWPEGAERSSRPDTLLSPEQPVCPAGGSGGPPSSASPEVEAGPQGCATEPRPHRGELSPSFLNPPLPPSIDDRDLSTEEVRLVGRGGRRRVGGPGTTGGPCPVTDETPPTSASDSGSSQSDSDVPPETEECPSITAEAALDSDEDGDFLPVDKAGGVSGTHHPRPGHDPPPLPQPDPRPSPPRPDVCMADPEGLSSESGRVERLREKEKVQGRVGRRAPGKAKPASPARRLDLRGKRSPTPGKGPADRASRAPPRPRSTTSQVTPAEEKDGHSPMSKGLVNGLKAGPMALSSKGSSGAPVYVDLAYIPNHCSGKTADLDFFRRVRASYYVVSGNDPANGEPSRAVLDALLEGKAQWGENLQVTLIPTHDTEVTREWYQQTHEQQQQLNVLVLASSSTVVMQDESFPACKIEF
UniProt P09874: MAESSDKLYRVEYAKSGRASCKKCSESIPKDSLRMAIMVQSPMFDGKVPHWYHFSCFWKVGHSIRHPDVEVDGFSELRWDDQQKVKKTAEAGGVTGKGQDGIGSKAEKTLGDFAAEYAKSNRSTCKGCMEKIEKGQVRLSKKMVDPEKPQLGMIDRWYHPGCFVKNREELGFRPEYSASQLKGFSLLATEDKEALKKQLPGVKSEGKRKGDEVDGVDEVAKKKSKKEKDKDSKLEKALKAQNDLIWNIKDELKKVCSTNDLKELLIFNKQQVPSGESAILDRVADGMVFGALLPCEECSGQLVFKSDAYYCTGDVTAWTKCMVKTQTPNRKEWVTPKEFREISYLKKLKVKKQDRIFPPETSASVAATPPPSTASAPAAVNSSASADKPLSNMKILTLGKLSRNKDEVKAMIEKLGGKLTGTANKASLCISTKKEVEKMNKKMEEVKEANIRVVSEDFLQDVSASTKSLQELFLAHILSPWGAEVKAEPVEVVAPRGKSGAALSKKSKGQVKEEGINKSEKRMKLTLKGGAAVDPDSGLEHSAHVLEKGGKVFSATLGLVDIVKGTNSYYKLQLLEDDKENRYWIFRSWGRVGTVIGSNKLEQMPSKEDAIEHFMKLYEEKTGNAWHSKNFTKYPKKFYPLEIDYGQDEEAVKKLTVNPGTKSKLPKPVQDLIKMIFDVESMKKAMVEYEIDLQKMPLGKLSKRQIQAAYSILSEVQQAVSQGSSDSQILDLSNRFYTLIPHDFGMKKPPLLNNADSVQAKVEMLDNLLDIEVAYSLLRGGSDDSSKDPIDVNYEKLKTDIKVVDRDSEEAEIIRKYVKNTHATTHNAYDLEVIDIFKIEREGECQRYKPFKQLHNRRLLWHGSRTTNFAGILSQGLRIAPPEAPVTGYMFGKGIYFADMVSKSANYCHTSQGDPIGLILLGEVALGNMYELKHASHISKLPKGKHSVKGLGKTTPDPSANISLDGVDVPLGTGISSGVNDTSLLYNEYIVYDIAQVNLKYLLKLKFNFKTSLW
UniProt P08670: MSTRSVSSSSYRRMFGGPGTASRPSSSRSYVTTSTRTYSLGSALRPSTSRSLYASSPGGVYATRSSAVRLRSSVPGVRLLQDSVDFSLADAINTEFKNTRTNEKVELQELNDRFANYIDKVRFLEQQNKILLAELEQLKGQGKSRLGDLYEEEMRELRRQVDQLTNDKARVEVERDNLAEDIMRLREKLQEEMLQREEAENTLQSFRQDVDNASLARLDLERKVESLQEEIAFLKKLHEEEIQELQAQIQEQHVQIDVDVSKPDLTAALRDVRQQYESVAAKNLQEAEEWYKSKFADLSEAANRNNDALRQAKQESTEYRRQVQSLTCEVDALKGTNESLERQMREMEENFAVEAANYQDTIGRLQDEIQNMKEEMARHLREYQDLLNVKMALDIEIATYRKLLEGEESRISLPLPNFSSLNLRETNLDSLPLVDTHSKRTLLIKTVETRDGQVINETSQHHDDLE

The target of experiment [1] is T1, SHC adaptor protein 3 (SHC3) (human (endogenous in U-87 MG)) (UniProt Q92529).
T1 sequence: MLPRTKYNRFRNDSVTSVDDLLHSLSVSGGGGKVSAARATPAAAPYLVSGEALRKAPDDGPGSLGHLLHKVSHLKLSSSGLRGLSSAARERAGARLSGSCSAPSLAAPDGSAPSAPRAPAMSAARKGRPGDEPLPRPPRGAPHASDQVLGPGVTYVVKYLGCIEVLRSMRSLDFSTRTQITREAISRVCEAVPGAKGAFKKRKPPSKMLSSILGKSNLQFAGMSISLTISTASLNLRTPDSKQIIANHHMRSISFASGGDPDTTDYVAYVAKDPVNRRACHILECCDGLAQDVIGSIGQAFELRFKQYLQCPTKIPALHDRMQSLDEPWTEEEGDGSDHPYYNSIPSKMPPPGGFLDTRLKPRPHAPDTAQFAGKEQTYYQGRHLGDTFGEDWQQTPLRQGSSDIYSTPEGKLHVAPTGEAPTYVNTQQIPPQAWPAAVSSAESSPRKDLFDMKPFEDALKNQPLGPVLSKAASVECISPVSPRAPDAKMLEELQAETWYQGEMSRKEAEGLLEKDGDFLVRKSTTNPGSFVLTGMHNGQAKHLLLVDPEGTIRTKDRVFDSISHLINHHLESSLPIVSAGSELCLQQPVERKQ
Kind of experiment: affinity purification with mass spectrometry; anti-SHC3 monoclonal antibody covalently linked to magnetic beads; RIPA whole cell extracts of U-87 MG maintained under normal and stressed (glucose exhausted) conditions; LC-MS/MS; control antibody against tetanus toxin.

Experiment [2] addresses T1, SHC adaptor protein 3 (SHC3) (human (endogenous in U-87 MG)). Described as above. This is another data set of the same source.

Like-named read-outs stand apart in the source and are kept apart here. These are yes or no findings as the source states them, for the method shown. In cells and extracts the contact can be indirect. A yes stands for co-enrichment or nearness to the bait. Other partners may have been found.

Take “BMP-2-inducible protein kinase (BMP2K) (from UniProt Q9NSY1 1-1161)”: in experiment [1], the binding result is reported as “binds”.
With “microtubule associated protein 1A (MAP1A) (from UniProt P78559 1-2803)”, the binding result in experiment [1] was “binds”.
Same read-out and setting: as for “poly ADP-ribose polymerase 1 (PARP1) (from UniProt P09874 1-1014)”, the entry is “binds”.
Take vimentin (from UniProt P08670 1-466): in experiment [1], the binding entry was “binds”.

B1: beta subunit of the AP1 complex (protein, UniProt Q10567 1-949)
chain: MTDSKYFTTTKKGEIFELKAELNSDKKEKKKEAVKKVIASMTVGKDVSALFPDVVNCMQTDNLELKKLVYLYLMNYAKSQPDMAIMAVNTFVKDCEDPNPLIRALAVRTMGCIRVDKITEYLCEPLRKCLKDEDPYVRKTAAVCVAKLHDINAQLVEDQGFLDTLKDLISDSNPMVVANAVAALSEIAESHPSSNLLDLNPQSINKLLTALNECTEWGQIFILDCLANYMPKDDREAQSICERVTPRLSHANSAVVLSAVKVLMKFMEMLSKDLDYYGTLLKKLAPPLVTLLSAEPELQYVALRNINLIVQKRPEILKHEMKVFFVKYNDPIYVKLEKLDIMIRLASQANIAQVLAELKEYATEVDVDFVRKAVRAIGRCAIKVEQSAERCVSTLLDLIQTKVNYVVQEAIVVIKDIFRKYPNKYESVIATLCENLDSLDEPEARAAMIWIVGEYAERIDNADELLESFLEGFHDESTQVQLQLLTAIVKLFLKKPTETQELVQQVLSLATQDSDNPDLRDRGYIYWRLLSTDPVAAKEVVLAEKPLISEETDLIEPTLLDELICYIGTLASVYHKPPSAFVEGGRGVVHKSLPPRTASSESAESPETAPTGAPPGEQPDVIPAQGDLLGDLLNLDLGPPVSGPPLATSSVQMGAVDLLGGGLDSLMGDEPEGIGGTNFVAPPTAAVPANLGAPIGSGLSDLFDLTSGVGTLSGSYVAPKAVWLPAMKAKGLEISGTFTRQVGSISMDLQLTNKALQVMTDFAIQFNRNSFGLAPAAPLQVHAPLSPNQTVEISLPLSTVGSVMKMEPLNNLQVAVKNNIDVFYFSTLYPLHILFVEDGKMDRQMFLATWKDIPNENEAQFQIRDCPLNAEAASSKLQSSNIFTVAKRNVEGQDMLYQSLKLTNGIWVLAELRIQPGNPSCTDLELSLKCRAPEVSQHVYQAYETILKN
With B1, the binding entry in experiment [2] is reported as “binds”.
